Results published in PubChem BioAssay AID504834 (National Center for Advancing Translational Sciences (NCATS), 2011).
Where “and” joins values, the source holds several entries; their conditions need not be identical. Equal entries are not always repeated. The campaign covered roughly 320,000 compounds. About 22,000 (6.9%) were called active. Inconclusive means that the source gave no clear call. Such entries were picked first, then a sample of the others. Calls come from the whole dose curve; as a rule, active = well fitted inhibition curve with a large enough effect; inconclusive = small, poorly fitted or top-dose-only effect, or another doubt; inactive = no such curve, though single readings can be large or run the other way. Where the call is inconclusive, the potency comes from a doubtful curve fit.

Assay: Primary qHTS for delayed death inhibitors of the malarial parasite plastid, 96 hour incubation
Conditions: P. falciparum luciferase reporter growth; series mostly up to 28.7 µM
Summary of the method: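 P. falciparum expressing integrated firefly luciferase grown in erythrocytes (2% hematocrit, 0.05% parasitemia final) with compounds for 96 hours at 37 C, 5% CO2. Growth inhibition read as loss of luminescence after adding luciferase detection reagent.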
Potency is the fitted concentration of half-maximal effect.

| Compound | Potency |
| --- | --- |
| CCCCC(CC)COC(=O)C(C#N)=C(c1ccccc1)c1ccccc1 (stereo not given) | active: 12 µM and active: 2.62 µM |
| C=CCn1c(SCC(=O)c2ccccc2)nnc1-c1ccc2c(c1)OCO2 | inactive |
| Cc1ccc(CN2CCN(Cc3ccccn3)CC2CCO)cc1 (stereo not given) | inactive |
| Nn1cnc2scc(-c3ccc(Cl)cc3)c2c1=O | active: 5.22 µM |
| CC1Cc2ccccc2N1C(=O)CNc1cccc(S(=O)(=O)N2CCCC2)c1 (stereo not given) | inconclusive: 7.38 µM [inhibitor, partial curve, poor fit] |
| COC(=O)C1CCN(c2c([N+](=O)[O-])cc(C(F)(F)F)cc2[N+](=O)[O-])CC1 | inconclusive: 11.7 µM [inhibitor, single point] |
| Cc1ccc(/C=c2\sc3nc(-c4cccnc4)nn3c2=O)cc1 | inconclusive: 9.28 µM [inhibitor, partial curve, poor fit] |
| COc1ccc(-n2ncc3c2CC(C)(C)CC3NC(=O)CCn2cncn2)cc1 (stereo not given) | inconclusive: 11.7 µM [inhibitor, single point] |
| CC(=O)Nc1ccc(N2C(=O)CSC2c2ccccc2)cc1 (stereo not given) | inconclusive: 18.5 µM [inhibitor, single point] |
| COc1ccc(N2C(=O)CC(N3CCN(S(=O)(=O)c4ccc(Cl)cc4)CC3)C2=O)cc1 (stereo not given) | inconclusive: 13.1 µM [inhibitor, single point] |
| COc1ccc(C(C)N2CC34C=CC(O3)C(C(=O)OCC(C)C)C4C2=O)cc1 (stereo not given) | active: 14.7 µM |
| COc1ccc2cc(C(c3nnnn3C(C)(C)C)N3CCSCC3)c(=O)[nH]c2c1 (stereo not given) | inactive |
| Cc1ccc(-n2c([S-])c(C(=O)NC(C)c3ccccc3)[n+]3ccccc23)cc1 (stereo not given) | inconclusive: 18.5 µM [inhibitor, single point] |
| COc1cc(C)c(CN2CCC(n3nccc3NC(=O)C3CCOC3)CC2)cc1C (stereo not given) | inconclusive: 10.4 µM [inhibitor, single point] |
| CCOC(=O)c1cc2c(OC)ccc(OC)c2n1CC(=O)c1ccccc1 | inconclusive: 5.22 µM [inhibitor, partial curve, poor fit] |
| CC(C)=CCN1CCN(Cc2cccn2-c2ccccn2)CC1CCO (stereo not given) | inconclusive: 10.4 µM [inhibitor, single point] |
| O=C(NCC1CCCO1)c1ccccc1-c1nc(-c2ccc(F)cc2)no1 (stereo not given) | inactive |
| C=CCn1c(-c2cc(OC)c(OC)c(OC)c2)n[nH]c1=S | inactive |
| CC1CCCN(C(=O)Cn2nnc(-c3ccc(S(C)(=O)=O)cc3)n2)C1 (stereo not given) | inactive |
| CCOc1ccccc1OCCOc1cccc(C(F)(F)F)c1 | inactive |
| Cc1ccc(Nc2c([N+](=O)[O-])c(=O)n(C)c3ccccc23)cc1 | active: 1.65 µM |
| CN(C)S(=O)(=O)c1cc(NC(=O)c2cc(=O)c3ccccc3o2)ccc1Cl | inconclusive: 0.37 µM [inhibitor, full curve] |
| Cn1c(C(=O)O)cc2c(=O)n3ccccc3nc21 | inactive |
| COc1ccc(-c2nc(CS(=O)CC(=O)NCCN3CCCCC3C)c(C)o2)cc1OC (stereo not given) | inconclusive: 18.5 µM [inhibitor, single point] |

Looked up by compound from the list above, 3 records:

| Compound | Potency |
| --- | --- |
| COc1ccc(-c2nc(CS(=O)CC(=O)NCCN3CCCCC3C)c(C)o2)cc1OC (stereo not given) | inconclusive: 18.5 µM [inhibitor, single point] |
| CCOc1ccccc1OCCOc1cccc(C(F)(F)F)c1 | inactive |
| CC(=O)Nc1ccc(N2C(=O)CSC2c2ccccc2)cc1 (stereo not given) | inconclusive: 18.5 µM [inhibitor, single point] |

Following part:

| Compound | Potency |
| --- | --- |
| COc1ccc(C2/C=C\CN(C(=O)OCc3ccccc3)CC(=O)N2Cc2ccc(F)cc2)cc1 (stereo not given) | inconclusive: 11.7 µM [inhibitor, single point] |
| CCCCN(C(=O)C(CCSC)N1C(=O)c2ccccc2C1=O)c1c(N)n(CCC)c(=O)[nH]c1=O (stereo not given) | inactive |
| O=C(CS(=O)c1ccccc1[N+](=O)[O-])Oc1ccc(Br)cc1 (stereo not given) | inconclusive: 9.28 µM [inhibitor, partial curve, poor fit] |
| Nc1cc(-c2ccc(Cl)cc2)nn1S(=O)(=O)c1ccccc1 | inactive |
| Cc1ccc(N(CC(=O)NCc2ccco2)S(=O)(=O)c2ccccc2)cc1 | inactive |
| O=S1(=O)NC[C@]23C[C@H](c4ccc(F)cc4)[C@@H](C[C@@H]21)O3 | inconclusive: 11.7 µM [inhibitor, partial curve, poor fit] |
| Cc1ccc(S(=O)(=O)N2CCC(C(=O)O)CC2)cc1C(=O)O | inconclusive: 6.57 µM [inhibitor, single point] |
| CCOC(=O)[C@H]1[C@H]2COc3ccc(C)cc3[C@@H]2N2C(=O)c3ccc(C)cc3NC(=O)[C@@]12C | inconclusive: 18.5 µM [inhibitor, single point] |
| CC(C)CC(=O)Nc1ccccc1-c1nnn(CC(=O)N2CCOCC2)n1 | inconclusive: 18.5 µM [inhibitor, single point] |
| CN1CCN(NC(=O)c2ccccc2F)CC1 | inconclusive: 3.7 µM [inhibitor, partial curve, poor fit] |
| Cc1ccc(S(=O)(=O)NCc2nc3nc(C)cc(C)n3n2)c(C)c1 | inconclusive: 1.04 µM [inhibitor, full curve] |
| CCCC(=O)Nc1ccc(C(=O)COC(=O)c2cc(C)oc2C)cc1 | inconclusive: 18.5 µM [inhibitor, single point] |
| COc1ccc2c(c1)cc1n2CCN2CCCN=C12 | inactive |
| COc1ccnc(N2CCN(c3cccc(C(F)(F)F)c3)CC2)c1C#N | inactive |
| CN1CCN(c2nc3c(c(=O)[nH]c(=O)n3C)n2CCCSc2ncccn2)CC1 | active: 13.1 µM |
| COc1cc(C(=O)NC(=S)Nc2nccs2)cc(OC)c1OC | inconclusive: 6.57 µM [inhibitor, single point] |
| Cc1cc(C(=O)Nc2ccccc2Cl)n(-c2ccccc2)n1 | inactive |
| CCOc1ccc(N2CC(C(=O)NCCc3ccccc3)CC2=O)cc1 (stereo not given) | inconclusive: 16.5 µM [inhibitor, single point] |
| CCCNC(=O)c1ccc(COc2ccc(C)cc2)o1 | inconclusive: 1.47 µM [inhibitor, partial curve, poor fit] |
| O=C(CCl)N1CCN(S(=O)(=O)c2ccc3ccccc3c2)CC1 | inconclusive: 18.5 µM [inhibitor, single point] |
| Cc1cc(=O)oc2c(C)c(OCC(=O)N3CCN(Cc4ccccc4)CC3)ccc12 | inconclusive: 18.5 µM [inhibitor, single point] |
| CC(=O)NC1(c2ccc(F)cc2)CCN(C(=O)c2c(F)cccc2F)CC1 | inconclusive: 4.15 µM [inhibitor, partial curve, poor fit] |
| O=C(CNc1ccccc1)N/N=C/c1cn(-c2ccccc2)nc1-c1ccccc1 | inconclusive: 9.28 µM [inhibitor, single point] |
| NNC(=O)CNC(c1ccccc1)c1cc(Br)ccc1NC(=O)c1cccc(Cl)c1 (stereo not given) | inconclusive: 18.5 µM [inhibitor, single point] |

Filtered by structure, the entries above with a CF3 group

| Compound | Potency |
| --- | --- |
| COC(=O)C1CCN(c2c([N+](=O)[O-])cc(C(F)(F)F)cc2[N+](=O)[O-])CC1 | inconclusive: 11.7 µM [inhibitor, single point] |
| CCOc1ccccc1OCCOc1cccc(C(F)(F)F)c1 | inactive |
| COc1ccnc(N2CCN(c3cccc(C(F)(F)F)c3)CC2)c1C#N | inactive |

Remaining list, next part:

| Compound | Potency |
| --- | --- |
| CC(NC(=O)COc1ccccc1)C(=O)N1CCN(c2ccccc2)CC1 (stereo not given) | inconclusive: 10.4 µM [inhibitor, single point] |
| COc1ccccc1N(C)S(=O)(=O)c1ccc(C(=O)N(C)Cc2ccc(OC(F)F)cc2)cc1 | inconclusive: 10.4 µM [inhibitor, single point] |
| CCCC(=O)NC(Oc1ccc(OC)cc1)C(Cl)(Cl)Cl (stereo not given) | inactive |
| O=C(NC1CC1)C1=C[C@H](c2ccc(Br)cc2)C[C@H](OCc2ccc(CO)cc2)O1 | inconclusive: 18.5 µM [inhibitor, single point] |
| CCOC(=O)C1(Cc2cccc(F)c2)CCN(Cc2cn(CC)nc2C)CC1 | inconclusive: 4.15 µM [inhibitor, full curve, poor fit] |
| Cc1ccc2[nH]c3c(=O)n4c(nc3c2c1)SCC4 | inconclusive: 0.329 µM [inhibitor, full curve, poor fit] |
| CC(C)Oc1ccc(OCCn2c(=S)[nH]c3c(N)ncnc32)cc1 | inactive |
| COc1cc2c(cc1OC)CN(C1CCC(C)CC1)CC2 (stereo not given) | inconclusive: 13.1 µM [inhibitor, single point] |
| COC(=O)c1ccc(CN2C(=O)C3CCCCC3C2=O)o1 (stereo not given) | inactive |
| CC(C)N=c1c([N+](=O)[O-])nn(C)n1O | inactive |
| CC(C)CN(C(=O)CN1CCN(c2ccc([N+](=O)[O-])cc2)CC1)c1c(N)n(CC(C)C)c(=O)[nH]c1=O | inconclusive: 5.22 µM [inhibitor, partial curve] |
| C/C(=N\N=C\c1ccc(N(C)C)cc1)c1cccc([N+](=O)[O-])c1 | inconclusive: 1.85 µM [inhibitor, full curve, poor fit] |
| Cc1ccccc1NC1=NC(=S)N(c2ccccc2)C12CCOC(C)(C)C2 (stereo not given) | inconclusive: 0.0041 µM [inhibitor, full curve, poor fit] |
| CCOC(=O)NC(=O)c1cn(Nc2ccccc2C(F)(F)F)c(=O)[nH]c1=O | inactive |
| CC1Cc2ccccc2N1C(=O)CSc1nc2ccccc2s1 (stereo not given) | inconclusive: 14.7 µM [inhibitor, partial curve, poor fit] |
| O=C(Cc1c(F)c(F)c(F)c(F)c1F)Nc1nc(-c2ccccc2)cs1 | inactive |
| CCOCCCNC(=O)c1ccc2c(c1)N=C(CC)c1cc(Br)ccc1S2 | inconclusive: 0.928 µM [inhibitor, single point] |
| Nc1nc2nc[nH]c2c(=O)[nH]1 | inconclusive: 18.5 µM [inhibitor, partial curve, poor fit] |
| Cc1cccc(OCCNS(=O)(=O)c2ccc(Cl)cc2)c1 | inactive |
| Cc1ccc2c(c1)[nH]c1c(N3CCN(Cc4ccccc4)CC3)ncnc12 | inconclusive: 18.5 µM [inhibitor, single point] |
| Cc1ccc(C(=O)CSc2nnc(-c3ccccc3N)n2C)cc1 | inactive |
| Cc1ccccc1CSCCNC(=O)CN(c1ccc2c(c1)OCO2)S(C)(=O)=O | inactive |
